Laboratory results reported in PubChem BioAssay AID1347075 (National Center for Advancing Translational Sciences (NCATS), 2019).
About 5,500 (1.4%) of roughly 400,000 compounds were called active. Inconclusive means that the source gave no clear call. Such entries were picked first, then a sample of the others. Calls come from the whole dose curve; as a rule, active = well fitted cell-killing curve with a large enough effect; inconclusive = small, poorly fitted or top-dose-only effect, or effect the other way; inactive = flat fitted curve, though single readings scatter. Potencies of inconclusive entries are doubtful fits and often do not repeat.

Test: qHTS assay for MDR1-selective chemotherapeutics: Primary screen using the parental adenocarcinoma cell KB-3-1; note: nearly all actives have a fitted effect of over 60% in size
Conditions: KB-3-1 viability, CellTiter-Glo ATP luminescence, 72 h; activity change, negative = cytotoxic: at 46.1 µM (top of the series)
Summary of the method: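 KB-3-1 parental drug-naive adenocarcinoma cells in DMEM/10% FBS, incubated 72 h at 37 C with pin-transferred compounds across a concentration series. Viability by CellTiter-Glo luminescence; concentration-response curves fitted after normalization.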
% is set by controls: 0 for no effect and ±100 for the full control effect; potency is the fitted concentration of half-maximal effect.

| SMILES | Potency | activity change, negative = cytotoxic |
| --- | --- | --- |
| O=C(CS(=O)c1ccc(C(F)(F)F)cc1[N+](=O)[O-])Oc1ccccc1 (centres undefined) | inconclusive: 6.51 µM [cytotoxic, full curve] | – |
| COc1ccc(CCN2C(=O)N(c3ccc(C)cc3)C(=O)C2CC(=O)Nc2ccc(F)cc2)cc1 (centres undefined) | inconclusive: 25.9 µM [cytotoxic, single point] | – |
| O=C(Cc1ccc([N+](=O)[O-])cc1)Nc1cc(C(F)(F)F)cc(C(F)(F)F)c1 | inconclusive: 29.1 µM [cytotoxic, single point] | – |
| CCOC(=O)c1cccc(NC(=O)CSc2nnc(-c3ccoc3C)n2CC)c1 | inactive | – |
| COc1cc(OC)c2c(c1)C(=O)OC2OC (centres undefined) | inconclusive: 8.2 µM [cytotoxic, partial curve, poor fit] | – |
| Cc1ccc(S(=O)(=O)CC(CN2CCCCC2)N2CCCCC2)cc1 (centres undefined) | – | inconclusive: -61.9% [cytotoxic] |
| O=C(/C=C/c1cn(-c2ccccc2)nc1-c1cccnc1)c1ccco1 | inconclusive: 20.6 µM [cytotoxic, single point] | – |
| Cc1onc(-c2ccccc2)c1C(=O)NNC(=O)c1ccccc1O | inconclusive: 29.1 µM [cytotoxic, single point] | – |
| CNC(=S)NNC(=O)c1ccc(C(C)(C)C)cc1 | inactive | – |
| Cc1ccccc1CSCCC(=O)NCCc1ccccc1 | inactive | – |
| CCOC(=O)c1c(NC(=O)C(Sc2ccccc2)c2ccccc2)sc(C(N)=O)c1C (centres undefined) | inconclusive: 29.1 µM [cytotoxic, single point] | – |
| COC(=O)c1cc(S(=O)(=O)Nc2cccc(S(N)(=O)=O)c2)oc1C | inconclusive: 0.0073 µM [rising, full curve] | – |
| Cc1csc(NC(=O)CSc2nc(C(C)C)nc3ccccc23)n1 | inconclusive: 29.1 µM [cytotoxic, single point] | – |
| C/C(CC(=O)Nc1cc(C)ccn1)=N\NC(=O)c1cccc(C)c1O | inconclusive: 6.51 µM [cytotoxic, partial curve] | – |
| Cc1ccc(NC(=O)Cn2c(=O)c3ccccc3n3nncc23)cc1 | inactive | – |
| Cc1ccc(OCCC(=O)Nc2cc(S(=O)(=O)N3CCOCC3)ccc2N2CCCC2)cc1 | inactive | – |
| O=C(CCN1C(=O)S/C(=C\c2ccccc2)C1=O)NCCCn1ccnc1 | inconclusive: 18.4 µM [cytotoxic, single point] | – |
| O=[N+]([O-])c1ccc(Nc2nc(NCCN3CCOCC3)nc(Nc3ccc(Cl)cc3)n2)cc1 | inconclusive: 16.4 µM [cytotoxic, single point] | – |
| NC(N)=N/N=C/c1ccc(Cl)cc1Cl | inconclusive: 25.9 µM [cytotoxic, partial curve, poor fit] | – |
| S=C(Nc1ccc(Cl)c(Cl)c1)NC1CCN(Cc2ccccc2)CC1 | inconclusive: 18.4 µM [cytotoxic, single point] | – |
| O=C(CN1C(=O)c2ccc([N+](=O)[O-])cc2C1=O)Nc1cc(S(=O)(=O)N2CCOCC2)ccc1Cl | inconclusive: 20.6 µM [rising, partial curve, poor fit] | – |
| Cc1ccccc1N1CCN(Cc2c[nH]c3ccccc23)CC1 | inactive | – |

One compound at a time, from the list above.
O=C(CN1C(=O)c2ccc([N+](=O)[O-])cc2C1=O)Nc1cc(S(=O)(=O)N2CCOCC2)ccc1Cl as listed: Potency: inconclusive: 20.6 µM [rising, partial curve, poor fit]
Cc1ccc(S(=O)(=O)CC(CN2CCCCC2)N2CCCCC2)cc1 (centres undefined) as listed: activity change, negative = cytotoxic: inconclusive: -61.9% [cytotoxic]
C/C(CC(=O)Nc1cc(C)ccn1)=N\NC(=O)c1cccc(C)c1O as listed: Potency: inconclusive: 6.51 µM [cytotoxic, partial curve]
CNC(=S)NNC(=O)c1ccc(C(C)(C)C)cc1 as listed: Potency: inactive

Next records follow.

| SMILES | Potency | activity change, negative = cytotoxic |
| --- | --- | --- |
| O=C1CCCN1c1ccc(S(=O)(=O)Oc2ccc(Cl)cc2)cc1[N+](=O)[O-] | inconclusive: 13 µM [cytotoxic, partial curve, poor fit] | – |
| COc1ccc(-c2n[nH]c(=S)n2-c2cc(OC)ccc2OC)cc1 | inactive | – |
| COc1cc(NC(=O)c2cc3c(s2)-c2ccccc2OC3)cc(OC)c1OC | inconclusive: 20.6 µM [cytotoxic, single point] | – |
| CCC/C=C/c1ccc(CN2C(C)C(=O)N(Cc3cn(CCC4OCCO4)nn3)CCS2(=O)=O)cc1 (centres undefined) | inactive | – |
| Cc1ccc(C(C)(C)NC(=O)C2CCC(=O)N(Cc3ccccc3F)C2)cc1 (centres undefined) | inactive | – |
| CC(=O)c1cccc(Nc2nc(-c3cccc(C)c3)nc3ccccc23)c1 | inactive | – |
| CCCCCCCCCCCCCCC(O)C[N+](C)(CCO)CCO (centres undefined) | inconclusive: 16.4 µM [cytotoxic, single point] | – |
| Cc1nc(-c2ccccc2)c(Cc2ccccc2O)c(=O)[nH]1 | inactive | – |
| Cc1cc(NCCOCCO)n2ncc(-c3ccc(Cl)cc3)c2n1 | inconclusive: 29.1 µM [cytotoxic, single point] | – |
| Cc1c(C(=O)N2c3ccccc3CC2C)oc2ccccc12 (centres undefined) | inconclusive: 23.1 µM [cytotoxic, single point] | – |
| O=S(=O)(c1ccccc1C(F)(F)F)N1CCN(c2ncnc3sccc23)CC1 | inconclusive: 29.1 µM [cytotoxic, single point] | – |
| Cc1ccc(S(=O)(=O)N2CCOCC2)cc1NC(=O)COC(=O)/C=C/c1ccco1 | inconclusive: 1.64 µM [cytotoxic, partial curve, poor fit] | – |
| O=C(NCCNCc1cccc(Cl)c1)c1ccco1 | inconclusive: 5.8 µM [rising, single point] | – |
| Cc1cc(C(=O)N/N=C/c2c(CO)cnc(C)c2O)c2ccccc2n1 | inconclusive: 29.1 µM [cytotoxic, single point] | – |
| Cc1ccccc1CN1C(=O)[C@@H]2Cc3c([nH]c4ccccc34)C(C)(C)N2C1=O | inconclusive: 25.9 µM [cytotoxic, single point] | – |
| CC(C)C(C)NC(=O)COc1ccc(Sc2ccc(OCC(=O)NC(C)C(C)C)cc2)cc1 (centres undefined) | inconclusive: 8.2 µM [cytotoxic, partial curve, poor fit] | – |
| C=CC[C@@H](CC(=O)NCCO)C(=O)NC[C@H](OC(=O)[C@@H](CC=C)CC(=O)OC(C)(C)C)c1ccccc1 | inconclusive: 29.1 µM [rising, single point] | – |
| CCc1cccc(NS(=O)(=O)c2ccc(-n3cccn3)cc2)c1 | inconclusive: 32.6 µM [cytotoxic, single point] | – |
| CCc1ccc(NC(=O)CSc2ccc(-c3ccccn3)nn2)cc1 | inconclusive: 23.1 µM [cytotoxic, single point] | – |
| O=C(NCCCN1CCN(c2ccc(F)cc2)CC1)c1cnn(-c2ccc(F)cc2)c1-n1cccc1 | inconclusive: 18.4 µM [cytotoxic, single point] | – |
| O=C(COc1ccccc1C(=O)Nc1cccc([N+](=O)[O-])c1)Nc1ccc(Br)cc1 | inconclusive: 29.1 µM [cytotoxic, single point] | – |
| COc1ccc(NC(=O)c2ccc3c(SCC(=O)O)c4c(nc3c2)CCCC4)c(OC)c1 | inconclusive: 29.1 µM [cytotoxic, single point] | – |

| SMILES | Potency | activity change, negative = cytotoxic |
| --- | --- | --- |
| O=C(NCCSCc1ccc(Cl)cc1Cl)c1ccc(CN2CCOCC2)cc1 | inconclusive: 20.6 µM [cytotoxic, partial curve, poor fit] | – |
| CCOc1ccccc1NC(=O)c1cc(C(=O)c2cc(Br)ccc2O)coc1=N | inconclusive: 32.6 µM [cytotoxic, single point] | – |
| COc1ccc(/C=C/C(=O)Oc2cccc(/C=N/NC(=O)Cc3ccc(Br)cc3)c2)cc1 | inconclusive: 29.1 µM [cytotoxic, single point] | – |
| COc1ccccc1N1C(=O)C2C(C(=O)c3ccccc3)=NN(c3ccccc3OC)C2C1=O (centres undefined) | inconclusive: 18.4 µM [rising, single point] | – |
| CC(C)(C)C(=O)NCc1ccc(C(=O)CSc2nnc3n2CCCCC3)s1 | inactive | – |
| NNC(=O)c1cc2c(s1)-c1cc(Cl)ccc1SC2 | inconclusive: 29.1 µM [cytotoxic, single point] | – |
| CCOC(=O)c1c(C)oc2c1c(C=NCC1CCCO1)c(O)c1ccccc12 (centres undefined) | inconclusive: 29.1 µM [cytotoxic, single point] | – |
| COc1ccc(-c2nc3ccc(Cl)cn3c2Cc2ccccc2C(F)(F)F)cc1OC | inconclusive: 29.1 µM [cytotoxic, single point] | – |
| C/C=C/C1=CC(=O)C[C@H](c2ccc(F)cc2)C1 | inconclusive: 16.4 µM [cytotoxic, single point] | – |
| Cc1cc(C)nc(/N=C(\N)Nc2ccc(OCCC(C)C)cc2)n1 | inconclusive: 29.1 µM [cytotoxic, single point] | – |
| CCc1ccc(NC(=O)Cn2nnc(C(=O)NCc3cccs3)c2N)cc1 | inactive | – |
| Cc1cc(CSc2ccccc2)ccc1NC(=O)c1ccc(CN2CCOCC2)cc1 | inconclusive: 3.66 µM [cytotoxic, partial curve] | – |
| C#C[C@]1(O)CC[C@H]2[C@@H]3CCc4cc(OC5CCCC5)ccc4[C@H]3CC[C@@]21C | inconclusive: 29.1 µM [cytotoxic, single point] | – |
| CCn1cc(C(=O)N2CCN(c3cccc(Cl)c3)CC2)c2cc(OC)c(OC)cc2c1=O | inconclusive: 29.1 µM [cytotoxic, single point] | – |
| CCN(CC)S(=O)(=O)c1ccc2oc(Nc3ccc(OC)cc3)nc2c1 | inconclusive: 8.2 µM [cytotoxic, partial curve] | – |
| CCn1c(SCC(=O)N2CCN(c3ccccc3)CC2)nnc1-c1c[nH]c2ccccc12 | inconclusive: 14.6 µM [cytotoxic, partial curve] | – |
| O=C(c1cc(-c2ccc3c(c2)OCO3)on1)N1CCN(c2ccc(F)cc2)CC1 | inconclusive: 20.6 µM [cytotoxic, single point] | – |
| CN(C)C(=O)COC(=O)c1ccccc1OCC(=O)Nc1ccc(Br)cc1 | inconclusive: 9.2 µM [rising, partial curve, poor fit] | – |
| CC(=O)NC1C(=O)N(CCN2CCOCC2)c2ccc(Br)cc21 (centres undefined) | – | inconclusive: 0.0269% |
| CC(=O)c1cccc(NC(=O)c2cccn2-c2nnc(N3CCCCC3)s2)c1 | inactive | – |
